Measured values taken from PubChem BioAssay AID485314 (National Center for Advancing Translational Sciences (NCATS), 2010).
Among all 340,000 compounds or so, about 4,500 (1.3%) were called active. The inconclusive results got no clear call from the source; some entries with a clear call stand among them for comparison. The call rests on the fitted dose curve; in most records, active means well fitted inhibition curve with a large enough effect; inconclusive means small, poorly fitted or top-dose-only effect, or another doubt; inactive means no such curve, though single readings can be large or run the other way. A potency beside an inconclusive call is a rough fit, not a confirmed value.

Target: DNA polymerase beta (Homo sapiens) (UniProt P06746)
Experiment: qHTS Assay for Inhibitors of DNA Polymerase Beta
Settings: Pol beta primer extension/strand displacement, fluorescence kinetic; activity change, negative = inhibition: at 114 µM (top of the series)
In short: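 Human Pol beta at 10 nM; strand-displacement substrate 50 nM final. Compound exposure 15 min at room temperature before start, reaction 10 min at room temperature.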
On the % scale 0 is the no-effect control and ±100 the full control effect; potency means the concentration at half of the fitted maximal effect.

| SMILES | Potency | activity change, negative = inhibition |
| --- | --- | --- |
| O=C(Nc1ccc2c(c1)OCO2)c1cccc2c1C(=O)N(Cc1cccnc1)C2 | active: 39.8 µM |  |
| COC(=O)c1ccc(OC(=O)/C=C/c2ccco2)cc1 | inconclusive: 79.4 µM [inhibitor, partial curve] |  |
| C=Cc1ccc(Cn2c(C)c(CNCCc3ccccc3C)c(C(=O)O)c2C)cc1 | inactive |  |
| O=C(N/N=C/c1c[nH]c2ccccc12)c1ccc2c(c1)OCCO2 | inconclusive: 63.1 µM [inhibitor, single point] |  |
| O=C(NCCN1CCOCC1)c1cccc(S(=O)(=O)N2CCCCCC2)c1 | inconclusive: 0.794 µM [inhibitor, full curve] |  |
| Cc1ccc(NC(=O)CCSc2nc(-c3ccco3)cc(C(F)(F)F)n2)cc1F | inactive |  |
| COc1ccc(/C=N/NC(=O)c2ccc(NC(=O)C3CCCCC3)cc2)cc1O | inconclusive: 50.1 µM [inhibitor, partial curve] |  |
| CC(=O)c1sc(NC(=O)CCCOc2ccc(Cl)cc2)nc1C | inconclusive: 25.1 µM [inhibitor, full curve] |  |
| Cc1cc(C(F)(F)F)nn1Cc1ccc(C(=O)NCc2ccco2)o1 | inconclusive: 79.4 µM [inhibitor, single point] |  |
| CSCc1nc2sc(C(=O)Nc3nc(C)cs3)c(C)c2c(=O)[nH]1 | inactive |  |
| CC(/C=N/NC(=O)c1cc(-c2ccc(C)s2)[nH]n1)=C\c1ccccc1 | inactive |  |
| Cc1ccc(/C=C/C(=O)Nc2ccc([N+](=O)[O-])c(NC(=O)/C=C/c3ccc(C)o3)c2)o1 | active: 11.2 µM |  |
| CC1CC(C)CN(S(=O)(=O)c2cccc3nsnc23)C1 (stereo unspecified) | inconclusive: 4.47 µM [inhibitor, single point] |  |
| CC(C)(C)N1C(=O)Cc2c1nc(N)c1c(N)nc(N3CCCCC3CO)c(C#N)c21 (stereo unspecified) | inactive |  |
| CCCCC(=O)Nc1c(C)cc(C)cc1Cl | inconclusive: 0.708 µM [inhibitor, full curve, poor fit] |  |
| CC(=O)N1c2ccc(S(=O)(=O)N3CCCCC3)cc2CC1C(=O)NCc1ccccc1C (stereo unspecified) | inactive |  |
| Cc1ccc(C)c(N2CCN(C(=O)c3ccc4c(c3)N(Cc3ccc(F)cc3)C(=O)c3ccccc3S4=O)CC2)c1 (stereo unspecified) | inactive |  |
| CC1CCC(Nc2nc3c(-c4cccc(C(F)(F)F)c4)nnn3c3ccccc23)CC1 (stereo unspecified) | inactive |  |
| CCCOc1ccc(CNC(=O)c2ccc(-n3c(C)cc4c3CCC(C)C4)cc2)cc1 (stereo unspecified) | inconclusive: 3.98 µM [inhibitor, full curve] |  |
| CNc1nc2c(-c3ccc(Cl)cc3)nnn2c2ccccc12 | inconclusive: 10 µM [inhibitor, partial curve] |  |
| CCOc1ccc(C2NC(=O)c3c(COC)cc(C)nc3N2Cc2ccccc2)cc1OC (stereo unspecified) | inactive |  |
| CC1Cc2ccccc2N1C(=O)CSc1nnc(-c2ccccc2Cl)o1 (stereo unspecified) | inactive |  |
| CCn1ncc(Br)c1C(=O)Nc1c(C)nn(Cc2c(F)c(F)c(F)c(F)c2F)c1C |  | inconclusive: -30.6% [inhibitor] |

| SMILES | Potency | activity change, negative = inhibition |
| --- | --- | --- |
| FC(F)(F)c1cccc(NC(=S)NCC2COc3ccccc3O2)c1 (stereo unspecified) | inconclusive: 10 µM [inhibitor, single point] |  |
| CC(=O)c1ccc(Nc2cc(C)nc3nc(Cc4ccc(Cl)cc4)nn23)cc1 | inconclusive: 20 µM [inhibitor, full curve] |  |
| CCc1ccc2oc(C(=O)Nc3cc(C)ccc3C)cc(=O)c2c1 | inconclusive: 50.1 µM [inhibitor, partial curve] |  |
| CCN(CC)CCCNc1nc(SC)nc2sc3c(c12)CCN(C)C3 | inconclusive: 39.8 µM [inhibitor, single point] |  |
| C=CCOc1c(OC)cc(/C=N/Nc2cccc(C(=O)O)c2)c(Br)c1Br | active: 50.1 µM |  |
| O=C(CSc1nnc(CNC(=O)c2ccco2)o1)Nc1cccc(F)c1 | inactive |  |
| Cc1cc(Cl)n2c(nc3cc(F)c(F)cc32)c1C#N | active: 50.1 µM |  |
| CCn1cc(C(=O)N(C)c2ccc(C(C)C)cc2)c2cc(OC)c(OC)cc2c1=O | inactive |  |
| CCc1ccc(NC(=O)Cn2c(=O)n(-c3ccc(OC)cc3)c(=O)c3ccc(C(=O)NCc4ccc(C)cc4)cc32)cc1 | inactive |  |
| CCCNC(=O)Cn1cnc2sc(C(=O)N3CCN(CCC)CC3)c(C)c2c1=O | inconclusive: 89.1 µM [inhibitor, single point] |  |
| O=C(O)c1ccc(/C=N/Nc2cccc(C(F)(F)F)c2)cc1 | inactive |  |
| COc1ccc(NC(=O)C2CCN(c3ccc(Sc4ccc(C)cc4)nn3)CC2)c(OC)c1 | inconclusive: 79.4 µM [inhibitor, single point] |  |
| CCc1ccc(N2CC(C(=O)Nc3ccc(S(=O)(=O)NCC4CCCO4)cc3)CC2=O)cc1 (stereo unspecified) | inconclusive: 28.2 µM [inhibitor, full curve, poor fit] |  |
| NS(=O)(=O)c1ccc(NC(=O)COc2cccc3ccccc23)cc1 | inactive |  |
| COc1ccc(C2(CNC(=O)c3ccc(N)cc3)CCCC2)cc1 | inconclusive: 100 µM [inhibitor, single point] |  |
| Cc1ccc2nc(COc3ccc(N(C)S(=O)(=O)c4ccccc4)cc3)cc(=O)n2c1 | inconclusive: 50.1 µM [inhibitor, partial curve] |  |
| COc1cccc(NC(=O)c2nnn(CC(=O)Nc3cc(C)cc(C)c3)c2N)c1 | active: 89.1 µM |  |
| Cc1ccc2c(CN3CCN(C(=O)c4ccc(Br)cc4)CC3)cc(=O)oc2c1 | inconclusive: 70.8 µM [inhibitor, partial curve] |  |
| Cc1ccc(NC(=O)c2nc(S(=O)(=O)Cc3ccccc3C)ncc2Cl)cc1C |  | inconclusive: -59.3% [inhibitor] |
| COc1ccc(N=c2cc(-c3ccc(O)cc3)oc3ccccc23)cc1 | inconclusive: 17.8 µM [inhibitor, single point] |  |
| CN1CC(=O)N2C(c3cccc([N+](=O)[O-])c3)c3[nH]c4ccccc4c3C[C@H]2C1=O (stereo partly specified) | inconclusive: 0.562 µM [inhibitor, full curve, poor fit] |  |
| Cc1cccc(-n2nc3c(c2NC(=O)CCCl)CSC3)c1 | inactive |  |
| Cc1ccc(S(=O)(=O)C(CNC(=O)C(=O)NCc2ccccc2C)c2cccs2)cc1 (stereo unspecified) | inactive |  |

Exported in CSV form: part of the list above
SMILES,Potency,"activity change, negative = inhibition"
C=CCOc1c(OC)cc(/C=N/Nc2cccc(C(=O)O)c2)c(Br)c1Br,active: 50.1 µM,
O=C(CSc1nnc(CNC(=O)c2ccco2)o1)Nc1cccc(F)c1,inactive,
Cc1cc(Cl)n2c(nc3cc(F)c(F)cc32)c1C#N,active: 50.1 µM,
CCn1cc(C(=O)N(C)c2ccc(C(C)C)cc2)c2cc(OC)c(OC)cc2c1=O,inactive,
CCc1ccc(NC(=O)Cn2c(=O)n(-c3ccc(OC)cc3)c(=O)c3ccc(C(=O)NCc4ccc(C)cc4)cc32)cc1,inactive,
CCCNC(=O)Cn1cnc2sc(C(=O)N3CCN(CCC)CC3)c(C)c2c1=O,"inconclusive: 89.1 µM [inhibitor, single point]",
O=C(O)c1ccc(/C=N/Nc2cccc(C(F)(F)F)c2)cc1,inactive,
COc1ccc(NC(=O)C2CCN(c3ccc(Sc4ccc(C)cc4)nn3)CC2)c(OC)c1,"inconclusive: 79.4 µM [inhibitor, single point]",
CCc1ccc(N2CC(C(=O)Nc3ccc(S(=O)(=O)NCC4CCCO4)cc3)CC2=O)cc1 (stereo unspecified),"inconclusive: 28.2 µM [inhibitor, full curve, poor fit]",
NS(=O)(=O)c1ccc(NC(=O)COc2cccc3ccccc23)cc1,inactive,
COc1ccc(C2(CNC(=O)c3ccc(N)cc3)CCCC2)cc1,"inconclusive: 100 µM [inhibitor, single point]",
